According to PubChem BioAssay AID463183 (Sanford-Burnham Center for Chemical Genomics, 2010):
The other results are listed elsewhere or left out. Further columns of the screen follow, without active or inactive calls. Most of these compounds were active or inconclusive in the main read-out, so they are no random draw.

Assay: hepatocyte lipid droplet accumulation inhibitors, confirmation, imaging, AML12 mouse hepatocytes, single concentration, high-content (AID 463183);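 also: cells counted after overnight compound exposure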
Settings: BODIPY lipid droplet imaging, measured here: cell count, cytotoxicity, at 5.2 µM, droplets induced with 100 µM oleic acid

Question: Which cell count does the source give for `CC1CCCN(C(=O)c2ccc3c(c2NCCO)C(=O)c2ccccc2C3=O)C1` (stereo unspecified) here?
Answer: 1680 cells

Question: With `Cc1cccc(Nc2nc(N)c([N+](=O)[O-])c(N3CCCC(C)C3)n2)c1` (stereo unspecified) as the compound, how does the cell count read?
Answer: 1700 cells

Question: With `O=C1c2ccccc2C(=O)c2c(Nc3ccc(CCO)cc3)ccc(O)c21` as the compound, how does the cell count read?
Answer: 1530 cells

Question: For `COc1ccc(N(C(=O)CCl)C(C(=O)NCCc2ccccc2)c2cccs2)cc1Cl` (stereo unspecified), which cell count is on record?
Answer: 20.2 cells

Question: Which cell count does the source give for `COC(=O)Cn1c(O)c(N=NC(=O)CNC(=O)COc2cccc(C)c2)c2ccccc21` here?
Answer: 1570 cells

Question: For `Cc1cc(NC(=O)c2cc3ccccc3o2)cc(C)c1OCC(=O)N1CCOCC1`, which cell count is on record?
Answer: 1680 cells

Question: With `CCOc1cc(C(=O)Nc2ccc(N3CCN(S(C)(=O)=O)CC3)cc2)cc(OCC)c1OCC` as the compound, how does the cell count read?
Answer: 1520 cells

Question: With `CCOc1ccc(CCNC(=O)C2(c3ccccc3)CC2)cc1OCC` as the compound, how does the cell count read?
Answer: 1590 cells

Question: Which cell count does the source give for `CCn1cc(C(=O)N(C)c2ccc(OC)cc2)c2cc(OC)c(OC)cc2c1=O` here?
Answer: 1620 cells

Question: With `CCOc1cc(N2CCOCC2)c(OCC)cc1NC(=O)COC(=O)c1cccc2ccccc12` as the compound, how does the cell count read?
Answer: 1540 cells

Question: For `COc1ccc(C(C(=O)NC(C)(C)C)N(Cc2ccc(C)cc2)C(=O)CCC(=O)Nc2cc(C)on2)cc1` (stereo unspecified), which cell count is on record?
Answer: 1660 cells

Question: Which cell count does the source give for `O=Nc1c(-c2c(O)[nH]c3cc(Br)ccc23)[nH]c2ccccc12` here?
Answer: 1490 cells

Question: For `CCn1cc(C(=O)NCc2ccc(Cl)cc2)c(=O)c2cc(S(=O)(=O)N(C)C)ccc21`, which cell count is on record?
Answer: 1630 cells

Question: Which cell count does the source give for `O=C(CSc1nc(O)cc(=O)[nH]1)N1c2ccccc2Sc2ccccc21` here?
Answer: 1540 cells

Question: With `O=C1C(NS(=O)(=O)c2cccs2)=C(N2CCN(c3cccc(C(F)(F)F)c3)CC2)C(=O)c2ccccc21` as the compound, how does the cell count read?
Answer: 1600 cells

Question: For `CCCCN(C(=O)CCC(=O)Nc1cc(C)on1)C(C(=O)NC1CCCC1)c1ccc(OCC)cc1` (stereo unspecified), which cell count is on record?
Answer: 1620 cells

Question: With `CC1CCN(C(=O)c2ccc3c(c2NCCO)C(=O)c2ccccc2C3=O)CC1` as the compound, how does the cell count read?
Answer: 1650 cells

Question: For `Cc1ccc(CNC(=O)CCCc2c[nH]c3ccccc23)cc1`, which cell count is on record?
Answer: 1600 cells

Question: For `CCOc1ccc(CCNC(=O)Cn2c(-c3nonc3N)nc3ccccc32)cc1OCC`, which cell count is on record?
Answer: 1560 cells

Question: For `COc1c([N+](=O)[O-])cc(C(=O)NNC(=O)c2ccc(C)cc2)cc1[N+](=O)[O-]`, which cell count is on record?
Answer: 1560 cells

Question: With `O=C(Nc1nc(-c2ccc(-c3ccccc3)cc2)cs1)C1CCCO1` (stereo unspecified) as the compound, how does the cell count read?
Answer: 1640 cells
